# Laboratory results reported in patent publication US9295259B2, “Fungicidal substituted 1-{2-[2-halo-4-(4-halogen-phenoxy)-phenyl]-2-alkoxy-3-methyl-butyl}-1H [1,2,4]triazole compounds” (BASF SE, priority 2011, dated 2016).
# Some of these results come from one statement about several compounds together.
# How the values were obtained:
# Type in all cases: cell-based
# Settings in all cases: 32 ppm; relative growth vs compound-free control (100%), 405 nm, 7 days after inoculation
# [1] = test system: Alternaria solani; experiment: Activity against early blight caused by Alternaria solani (Alteso), microtest
# [2] = test system: Septoria tritici; experiment: Activity against leaf blotch on wheat caused by Septoria tritici (Septtr), microtest
# [3] = test system: Leptosphaeria nodorum; experiment: Activity against wheat leaf spots caused by Leptosphaeria nodorum (Leptno), microtest
# [4] = test system: Botrytis cinerea; experiment: Activity against the grey mold Botrytis cinerea in the microtiterplate test (Botrci)
compound,measurement,setting,value
"C=CCOC(Cn1cncn1)(c1ccc(Oc2ccc(Cl)cc2)cc1Cl)C(C)C (stereo not shown) [I-2, 1-[2-allyloxy-2-[2-chloro-4-(4-chlorophenoxy)phenyl]-3-methyl-butyl]-1,2,4-triazole]",growth (Alteso),[1],≤ 4%
same,growth (Septtr),[2],≤ 2%
same,growth (Leptno),[3],≤ 3%
same,growth (Botrci),[4],≤ 12%
